Counter-ions that a name gives are not always drawn. In all, about 5,300 compounds went through this assay and about 130 (2.5%) showed an effect of 50% or more. The list shows a part of the results.
The molecules below were run on M. mycetomatis strain mm55. Settings: primary screen, metabolic activity vs growth control; 96 h, 2 µM; inhibitor.

Going from `O=C(Cn1ccnc1[N+](=O)[O-])NCc1ccccc1` [ONC0002112, benznidazole] to `c1ccc(CC2=NCCN2)cc1` [ONC0000573, tolazoline hydrochloride], the “% viability” value rises from 62.1% to 87.14%.

First: O=C1c2ccccc2C(=O)C1c1ccccc1 [ONC0000611, phenindione]
Second: CC(C)(C)N1CCC(c2ccccc2)(c2ccccc2)CC1 [ONC0002755, budipine]
The “% viability” value of the first is lower: 117.3% for the first, 128.8% for the second.

First: CC(C)[C@@H](C)/C=C/[C@@H](C)[C@H]1CC[C@H]2C3=CC=C4C[C@@H](O)CC[C@]4(C)[C@H]3CC[C@]12C [ONC0004611, ergosterol]
Second: CNc1nc(-c2ccc3c(N)n[nH]c3c2)cc(N2C[C@@H](C(=O)NC3CCCCC3)CC[C@H]2C)n1 [ONC0002484, gsk2334470]
The “% viability” value of the first is higher: 60.59% for the first, 37.41% for the second.

Going from `CCc1nn(CCO)c(CC)c1Oc1cc(C#N)cc(C#N)c1` [ONC0001814, lersivirine] to `Cc1cc(Nc2cc(C)c(C#N)c(NC(C)CCCC(C)(C)O)n2)n[nH]1` (stereo not drawn) [ONC0001704, tca2317], the “% viability” value falls from 93.65% to 79.38%.

First: O=C(O)CCCc1c[nH]c2ccccc12 [ONC0004667, 3indolebutyric acid iba]
Second: COc1ccc(C(=O)CCC(=O)O)c2ccccc12 [ONC0005282, menbutone]
The “% viability” value of the first is higher: 131.4% for the first, 82.17% for the second.

Going from `CC(C)(Oc1ccc(CCNC(=O)c2ccc(Cl)cc2)cc1)C(=O)O` [ONC0004140, bezafibrate] to `COc1ccc(Cl)cc1C(=O)NCCc1ccc(C(=O)O)cc1` [ONC0002353, meglitinide], the “% viability” value falls from 94.73% to 70.11%.

Going from `OCCN1CCN(CCCN2c3ccccc3Sc3ccc(C(F)(F)F)cc32)CC1` [ONC0003193, fluphenazine hydrochloride] to `COc1cccc(-c2c(C)n(Cc3c(F)cccc3C(F)(F)F)c(=O)n(C[C@H](NCCCC(=O)O)c3ccccc3)c2=O)c1F` [ONC0005554, elagolix], the “% viability” value rises from 105.7% to 166.7%.

First: CC(=O)c1ccc2c(c1)C(=O)C1(CC1)O2 [ONC0002136, spizofurone]
Second: CC(C(=O)O)c1ccc(CC2CCCC2=O)cc1 (stereo not drawn) [ONC0002427, loxoprofen]
The “% viability” value of the first is lower: 69.8% for the first, 99% for the second.

First: CC1=C(/C=C/C(C)=C/C=C/C(C)=C/C=C/C=C(C)/C=C/C=C(C)/C=C/C2=C(C)CCCC2(C)C)C(C)(C)CCC1 [ONC0002105, carotene]
Second: CC[C@H]1OC(=O)[C@H](C)[C@@H](O[C@H]2C[C@@](C)(OC)[C@@H](O)[C@H](C)O2)[C@H](C)[C@@H](O[C@@H]2O[C@H](C)C[C@H](N(C)C)[C@H]2O)[C@](C)(O)C[C@@H](C)C(=O)[C@H](C)[C@@H](O)[C@]1(C)O [ONC0000718, erythromycin]
The “% viability” value of the first is lower: 58.75% for the first, 71.17% for the second.

First: CCCCCCCC/C=C\CCCCCCCC(=O)OC(CO)CO [ONC0005333, 2oleoylglycerol]
Second: O=C(O)CCc1c(C(=O)O)[nH]c2cc(Cl)cc(Cl)c12 [ONC0001050, mdl29951]
The “% viability” value of the first is higher: 121.8% for the first, 70.31% for the second.

First: O=C(NOCC1CC1)c1ccc(F)c(F)c1Nc1ccc(I)cc1Cl [ONC0004752, ci1040 pd184352]
Second: O=C(N[C@H]1CN2CCC1CC2)c1cc2cccc(Cl)c2s1 [ONC0001314, encenicline hydrochloride]
The “% viability” value of the first is higher: 100.5% for the first, 90.3% for the second.

Compared with `Nc1nc(F)nc2c1ncn2[C@@H]1O[C@H](COP(=O)(O)O)[C@@H](O)[C@@H]1O` [ONC0004083, fludarabine phosphate], `Nc1nc(=O)n([C@@H]2O[C@H](CO)[C@@H](O)[C@@H]2F)cc1I` [ONC0001084, fiacitabine] is lower in “% viability” value: 101.2% for the first, 61.87% for the second.

Compared with `O=C(O[C@H]1[C@H](OC(=O)c2cccnc2)[C@@H](OC(=O)c2cccnc2)[C@H](OC(=O)c2cccnc2)[C@@H](OC(=O)c2cccnc2)[C@H]1OC(=O)c1cccnc1)c1cccnc1` [ONC0003319, inositol nicotinate], `O=C(COc1ccc(C(=O)c2ccccc2)cc1)NC1CCN(Cc2ccccc2)CC1` [ONC0000156, adiporon] is higher in “% viability” value: 63.29% for the first, 92.46% for the second.

Compared with `O=C(O[C@H]1C[N+]2(CCCOc3ccccc3)CCC1CC2)C(O)(c1cccs1)c1cccs1` [ONC0005111, aclidinium bromide], `Nc1ccc2ncnc(NCCc3ccc(Oc4ccccc4)cc3)c2c1` [ONC0004571, qnz evp4593] is lower in “% viability” value: 82.99% for the first, 73.82% for the second.

Compared with `CC(C)Cc1ccc(C(C)C(=O)NO)cc1` (stereo not drawn) [ONC0003493, ibuproxam], `C[C@@H](NCCc1ccc(O)cc1)[C@@H](O)c1ccc(O)cc1` (racemic) [ONC0000689, ritodrine hydrochloride] is higher in “% viability” value: 73.64% for the first, 122.8% for the second.

Going from `Brc1cc2c(cc1[C@@H]1Nc3ccccc3[C@@H]3C=CC[C@@H]31)OCO2.Brc1cc2c(cc1[C@H]1Nc3ccccc3[C@H]3C=CC[C@H]31)OCO2` [ONC0004256, g15] to `CC(Cc1ccccc1)NCCC(c1ccccc1)c1ccccc1` (stereo not drawn) [ONC0002952, prenylamine], the “% viability” value falls from 86.1% to 60.44%.

Compared with `NC(=O)c1ccccc1O` [ONC0003411, salicylamide], `CC(C)C[C@H](NC(=O)[C@H](Cc1ccccc1)NC(=O)c1cnccn1)B(O)O` [ONC0002213, bortezomib] is higher in “% viability” value: 88.05% for the first, 116.9% for the second.

First: Sc1ncnc2nc[nH]c12 [ONC0000500, mercaptopurine]
Second: Oc1c(Br)cc(Br)c2cccnc12 [Broxyquinoline]
The “% viability” value of the first is higher: 72.86% for the first, 5.699% for the second.

Compared with `COC(F)(F)C(Cl)Cl` [ONC0003659, 22dichloro11difluoroethyl methyl ether], `COc1ccc(-c2coc3cc(O)ccc3c2=O)cc1` [ONC0005242, formononetin formononetol] is higher in “% viability” value: 57.79% for the first, 123.3% for the second.

In the case of `O=C(OCCN1CCOCC1)C1(c2ccccc2)CCCCC1` [ONC0001736, pre084], the “% viability” value is reported as 85.15%.

Reference: PMC12670160, “A drug-repurposing screen of FDA- and EMA-approved drugs identifies two NF-κB inhibitors active against eumycetoma” (Journal of Antimicrobial Chemotherapy, 2025)
